# Measurements from the supplement of paper PMC10032668.
# By UniProt entry, the sequences of proteins in these tests, tags left out.
# AHSA1, O95433, UniProt O95433, whole entry: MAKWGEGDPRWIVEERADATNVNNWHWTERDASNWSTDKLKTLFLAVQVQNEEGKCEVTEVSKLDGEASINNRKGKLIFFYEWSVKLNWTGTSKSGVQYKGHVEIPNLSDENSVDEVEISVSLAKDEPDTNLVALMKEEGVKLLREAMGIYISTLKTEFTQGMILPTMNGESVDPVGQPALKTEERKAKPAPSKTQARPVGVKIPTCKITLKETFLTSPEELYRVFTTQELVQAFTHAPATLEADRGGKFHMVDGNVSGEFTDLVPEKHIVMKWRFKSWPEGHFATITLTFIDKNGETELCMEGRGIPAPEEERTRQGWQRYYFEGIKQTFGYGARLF
# COA4, Q9NYJ1, UniProt Q9NYJ1, whole entry: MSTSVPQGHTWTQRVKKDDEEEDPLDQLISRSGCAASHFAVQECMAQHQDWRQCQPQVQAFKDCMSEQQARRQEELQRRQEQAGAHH
# DNAJB1, P25685, UniProt P25685, whole entry: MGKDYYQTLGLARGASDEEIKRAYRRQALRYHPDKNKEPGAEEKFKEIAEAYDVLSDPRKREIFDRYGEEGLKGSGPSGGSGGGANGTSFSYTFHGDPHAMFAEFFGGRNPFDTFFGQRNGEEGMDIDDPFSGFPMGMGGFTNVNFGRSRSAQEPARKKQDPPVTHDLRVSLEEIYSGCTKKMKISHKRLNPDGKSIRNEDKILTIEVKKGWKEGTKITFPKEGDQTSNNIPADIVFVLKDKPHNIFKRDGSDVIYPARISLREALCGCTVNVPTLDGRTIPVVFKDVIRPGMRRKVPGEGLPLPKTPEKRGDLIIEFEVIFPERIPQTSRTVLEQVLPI
# EIF1B, O60739, UniProt O60739, whole entry: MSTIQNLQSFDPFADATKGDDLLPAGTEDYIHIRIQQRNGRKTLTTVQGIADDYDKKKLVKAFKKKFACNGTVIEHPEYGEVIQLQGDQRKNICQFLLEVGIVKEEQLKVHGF
# NDUFS6, O75380, UniProt O75380, whole entry: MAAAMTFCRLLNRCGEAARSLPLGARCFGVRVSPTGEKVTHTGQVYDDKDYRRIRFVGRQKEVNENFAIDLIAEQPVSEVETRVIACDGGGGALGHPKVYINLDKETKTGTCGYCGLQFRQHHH
# NUP153, P49790, UniProt P49790, whole entry: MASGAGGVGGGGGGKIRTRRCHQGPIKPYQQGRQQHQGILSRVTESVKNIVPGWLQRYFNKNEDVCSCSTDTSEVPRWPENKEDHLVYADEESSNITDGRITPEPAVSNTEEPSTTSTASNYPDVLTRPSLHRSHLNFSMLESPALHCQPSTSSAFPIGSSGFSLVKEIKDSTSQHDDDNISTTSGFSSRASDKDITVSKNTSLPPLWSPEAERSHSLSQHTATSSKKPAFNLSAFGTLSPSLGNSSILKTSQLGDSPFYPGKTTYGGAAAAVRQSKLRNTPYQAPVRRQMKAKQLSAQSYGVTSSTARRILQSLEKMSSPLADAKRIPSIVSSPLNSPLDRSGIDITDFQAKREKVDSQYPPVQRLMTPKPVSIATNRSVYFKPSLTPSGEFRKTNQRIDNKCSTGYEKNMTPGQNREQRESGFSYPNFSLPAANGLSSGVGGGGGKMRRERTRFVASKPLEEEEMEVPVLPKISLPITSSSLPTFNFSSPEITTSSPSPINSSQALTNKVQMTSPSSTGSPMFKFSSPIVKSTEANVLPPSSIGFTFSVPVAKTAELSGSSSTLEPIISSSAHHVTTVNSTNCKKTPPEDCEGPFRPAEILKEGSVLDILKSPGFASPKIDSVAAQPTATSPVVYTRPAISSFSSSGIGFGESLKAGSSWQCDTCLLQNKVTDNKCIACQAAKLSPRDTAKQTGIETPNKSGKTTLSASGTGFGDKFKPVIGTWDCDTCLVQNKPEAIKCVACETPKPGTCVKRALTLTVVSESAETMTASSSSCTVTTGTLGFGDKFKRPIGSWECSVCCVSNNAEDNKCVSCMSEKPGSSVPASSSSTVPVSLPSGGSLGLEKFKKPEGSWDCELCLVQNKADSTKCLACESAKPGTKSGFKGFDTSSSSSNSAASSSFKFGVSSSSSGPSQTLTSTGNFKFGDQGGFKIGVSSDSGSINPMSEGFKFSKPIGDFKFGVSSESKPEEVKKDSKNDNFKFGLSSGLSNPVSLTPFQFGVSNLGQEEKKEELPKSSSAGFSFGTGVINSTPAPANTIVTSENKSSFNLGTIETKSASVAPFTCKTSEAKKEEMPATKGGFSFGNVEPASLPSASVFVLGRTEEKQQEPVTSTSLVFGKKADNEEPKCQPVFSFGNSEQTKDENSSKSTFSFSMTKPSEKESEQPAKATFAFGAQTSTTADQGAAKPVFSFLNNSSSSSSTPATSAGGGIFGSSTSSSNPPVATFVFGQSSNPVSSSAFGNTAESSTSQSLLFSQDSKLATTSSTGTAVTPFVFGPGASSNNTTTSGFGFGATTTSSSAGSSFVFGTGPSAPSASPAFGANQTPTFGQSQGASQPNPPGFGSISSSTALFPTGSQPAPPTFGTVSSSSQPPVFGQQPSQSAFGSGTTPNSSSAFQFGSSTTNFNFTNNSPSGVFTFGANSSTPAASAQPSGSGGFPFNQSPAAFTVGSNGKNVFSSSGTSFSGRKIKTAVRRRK
# PCBP2, Q15366, UniProt Q15366, whole entry: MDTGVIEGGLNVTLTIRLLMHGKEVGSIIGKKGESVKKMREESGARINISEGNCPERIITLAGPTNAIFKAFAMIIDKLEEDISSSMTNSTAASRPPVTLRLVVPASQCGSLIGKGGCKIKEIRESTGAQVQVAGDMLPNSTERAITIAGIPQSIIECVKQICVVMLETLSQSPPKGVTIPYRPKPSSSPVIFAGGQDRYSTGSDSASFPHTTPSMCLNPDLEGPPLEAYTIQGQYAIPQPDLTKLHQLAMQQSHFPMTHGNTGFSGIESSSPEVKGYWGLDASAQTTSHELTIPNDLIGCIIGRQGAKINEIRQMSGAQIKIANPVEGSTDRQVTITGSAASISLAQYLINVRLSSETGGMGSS
# PDLIM7, Q9NR12, UniProt Q9NR12, whole entry: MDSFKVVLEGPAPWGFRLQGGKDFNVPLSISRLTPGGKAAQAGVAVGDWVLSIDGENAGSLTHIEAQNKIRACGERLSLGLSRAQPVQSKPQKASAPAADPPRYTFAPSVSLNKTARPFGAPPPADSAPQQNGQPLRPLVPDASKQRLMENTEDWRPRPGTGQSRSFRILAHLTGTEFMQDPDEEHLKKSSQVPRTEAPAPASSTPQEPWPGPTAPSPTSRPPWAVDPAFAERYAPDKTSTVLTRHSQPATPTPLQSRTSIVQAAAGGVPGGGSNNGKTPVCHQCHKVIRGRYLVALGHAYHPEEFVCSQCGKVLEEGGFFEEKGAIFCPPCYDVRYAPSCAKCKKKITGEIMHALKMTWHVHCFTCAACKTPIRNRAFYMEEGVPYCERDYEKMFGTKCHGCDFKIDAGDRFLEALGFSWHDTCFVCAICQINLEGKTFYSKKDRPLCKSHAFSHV
# ATP6V1F, Q16864, UniProt Q16864, whole entry: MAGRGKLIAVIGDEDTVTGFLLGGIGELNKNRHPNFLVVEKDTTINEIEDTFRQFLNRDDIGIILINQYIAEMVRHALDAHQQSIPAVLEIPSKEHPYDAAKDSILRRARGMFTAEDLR
# CLPX, O76031, UniProt O76031, whole entry: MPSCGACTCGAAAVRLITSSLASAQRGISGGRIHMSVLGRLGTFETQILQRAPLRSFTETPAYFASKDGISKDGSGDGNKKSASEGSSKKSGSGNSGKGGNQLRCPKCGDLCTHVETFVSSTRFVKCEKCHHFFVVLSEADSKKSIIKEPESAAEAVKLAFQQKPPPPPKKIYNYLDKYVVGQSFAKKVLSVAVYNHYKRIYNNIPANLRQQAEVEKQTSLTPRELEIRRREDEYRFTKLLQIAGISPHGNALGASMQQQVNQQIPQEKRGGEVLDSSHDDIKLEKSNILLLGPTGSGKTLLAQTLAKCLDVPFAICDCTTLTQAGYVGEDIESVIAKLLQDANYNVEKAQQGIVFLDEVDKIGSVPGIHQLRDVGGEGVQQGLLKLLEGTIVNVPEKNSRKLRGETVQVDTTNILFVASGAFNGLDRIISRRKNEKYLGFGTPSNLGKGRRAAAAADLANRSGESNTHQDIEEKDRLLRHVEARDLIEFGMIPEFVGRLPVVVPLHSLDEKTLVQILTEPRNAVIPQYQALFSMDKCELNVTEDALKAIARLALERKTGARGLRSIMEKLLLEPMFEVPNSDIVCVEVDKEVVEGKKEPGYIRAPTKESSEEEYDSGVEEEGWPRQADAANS
# CXorf40A, Q8TE69, UniProt Q8TE69, whole entry: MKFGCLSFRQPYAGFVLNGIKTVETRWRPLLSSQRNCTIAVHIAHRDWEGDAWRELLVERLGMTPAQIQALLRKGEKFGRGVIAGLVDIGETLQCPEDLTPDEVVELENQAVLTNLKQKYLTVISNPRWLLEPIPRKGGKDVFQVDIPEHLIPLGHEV
# MECP2, P51608, UniProt P51608, whole entry: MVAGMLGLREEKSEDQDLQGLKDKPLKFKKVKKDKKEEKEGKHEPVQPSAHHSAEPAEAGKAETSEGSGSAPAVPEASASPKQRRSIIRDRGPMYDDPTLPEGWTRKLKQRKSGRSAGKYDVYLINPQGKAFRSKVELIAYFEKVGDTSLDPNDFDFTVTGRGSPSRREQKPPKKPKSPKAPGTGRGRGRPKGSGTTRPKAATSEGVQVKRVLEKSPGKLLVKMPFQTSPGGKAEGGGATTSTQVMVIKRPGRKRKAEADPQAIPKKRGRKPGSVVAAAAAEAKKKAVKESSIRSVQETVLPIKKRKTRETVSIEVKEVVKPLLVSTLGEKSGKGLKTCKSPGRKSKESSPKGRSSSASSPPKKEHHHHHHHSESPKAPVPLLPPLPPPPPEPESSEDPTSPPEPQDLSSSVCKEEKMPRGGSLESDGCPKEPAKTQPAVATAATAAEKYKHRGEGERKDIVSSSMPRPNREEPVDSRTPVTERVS
# This is one part of the list. The list holds hits alone, and they repeat only in part.
# Legend:
# Assay in all cases: PRISMA enrichment of interactor (LFQ) in peptide spot vs all other peptide spots (log2 fold change); higher = stronger / more specific binding of the interactor to the peptide
# AHSA1, O95433 = target: AHSA1, O95433
# Experimental: (§1)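 PRISMA: 221 full-length sORF-encoded peptides (3-15 aa), plus SOS1/GLUT1 control peptides, were spot-synthesized on cellulose membranes in triplicate. Membranes were incubated with HEK293T lysate, and bound proteins were identified by LC-MS/MS with LFQ. Enrichment is the log2 fold change versus all other peptide spots; only significant interactors are listed (cutoff c=6, x0=2.8).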
# BOLA3, Q53S33 = target: BOLA3, Q53S33
# Experimental: as §1
# C20orf27, Q9GZN8 = target: C20orf27, Q9GZN8
# Experimental: as §1
# COA4, Q9NYJ1 = target: COA4, Q9NYJ1
# Experimental: as §1
# CSRP2, Q16527 = target: CSRP2, Q16527
# Experimental: as §1
# CXorf56, Q9H5V9 = target: CXorf56, Q9H5V9
# Experimental: as §1
# DAZAP1, Q96EP5 = target: DAZAP1, Q96EP5
# Experimental: as §1
# DNAJB1, P25685 = target: DNAJB1, P25685
# Experimental: as §1
# DNAJB11, Q9UBS4 = target: DNAJB11, Q9UBS4
# Experimental: as §1
# EIF1B, O60739 = target: EIF1B, O60739
# Experimental: as §1
# EIF4H, Q15056 = target: EIF4H, Q15056
# Experimental: as §1
# FAM168A, Q92567 = target: FAM168A, Q92567
# Experimental: as §1
# ISCU, Q9H1K1 = target: ISCU, Q9H1K1
# Experimental: as §1
# JPT2, Q9H910 = target: JPT2, Q9H910
# Experimental: as §1
# KIF4A, O95239 = target: KIF4A, O95239
# Experimental: as §1
# NDUFS6, O75380 = target: NDUFS6, O75380
# Experimental: as §1
# NUP153, P49790 = target: NUP153, P49790
# Experimental: as §1
# NXF1, Q9UBU9 = target: NXF1, Q9UBU9
# Experimental: as §1
# PCBP2, Q15366 = target: PCBP2, Q15366
# Experimental: as §1
# [1] = substrate: PCNP, Q8WW12
# Experimental: as §1
# PDLIM3, Q53GG5 = target: PDLIM3, Q53GG5
# Experimental: as §1
# PDLIM7, Q9NR12 = target: PDLIM7, Q9NR12
# Experimental: as §1
# RBM14, Q96PK6 = target: RBM14, Q96PK6
# Experimental: as §1
# SDF2L1, Q9HCN8 = target: SDF2L1, Q9HCN8
# Experimental: as §1
# SEH1L, Q96EE3 = target: SEH1L, Q96EE3
# Experimental: as §1
# UBE2S, Q16763 = target: UBE2S, Q16763
# Experimental: as §1
# WDR5, P61964 = target: WDR5, P61964
# Experimental: as §1
# AIP, O00170 = target: AIP, O00170
# Experimental: as §1
# ALKBH2, Q6NS38 = target: ALKBH2, Q6NS38
# Experimental: as §1
# C19orf53, Q9UNZ5 = target: C19orf53, Q9UNZ5
# Experimental: as §1
# CCDC137, Q6PK04 = target: CCDC137, Q6PK04
# Experimental: as §1
# CCDC178, Q5BJE1 = target: CCDC178, Q5BJE1
# Experimental: as §1
# CSNK1E, P49674 = target: CSNK1E, P49674
# Experimental: as §1
# ENDOG, Q14249 = target: ENDOG, Q14249
# Experimental: as §1
# PBK, Q96KB5 = target: PBK, Q96KB5
# Experimental: as §1
# PCLAF, Q15004 = target: PCLAF, Q15004
# Experimental: as §1
# PSRC1, Q6PGN9 = target: PSRC1, Q6PGN9
# Experimental: as §1
# RAB34 = target: RAB34
# Experimental: as §1
# RBIS, Q8N0T1 = target: RBIS, Q8N0T1
# Experimental: as §1
# RBM33, Q96EV2 = target: RBM33, Q96EV2
# Experimental: as §1
# AK4, P27144 = target: AK4, P27144
# Experimental: as §1
# ANKRD26, Q9UPS8 = target: ANKRD26, Q9UPS8
# Experimental: as §1
# AP3D1, O14617 = target: AP3D1, O14617
# Experimental: as §1
# ASCC1, Q8N9N2 = target: ASCC1, Q8N9N2
# Experimental: as §1
# ATP6V1F, Q16864 = target: ATP6V1F, Q16864
# Experimental: as §1
# CLPX, O76031 = target: CLPX, O76031
# Experimental: as §1
# COQ8A, Q8NI60 = target: COQ8A, Q8NI60
# Experimental: as §1
# CTNND1, O60716 = target: CTNND1, O60716
# Experimental: as §1
# CXorf40A, Q8TE69 = target: CXorf40A, Q8TE69
# Experimental: as §1
# DMD, P11532 = target: DMD, P11532
# Experimental: as §1
# EHD1, Q9H4M9 = target: EHD1, Q9H4M9
# Experimental: as §1
# EHD4, Q9H223 = target: EHD4, Q9H223
# Experimental: as §1
# GGT5, P36269 = target: GGT5, P36269
# Experimental: as §1
# MECP2, P51608 = target: MECP2, P51608
# Experimental: as §1
# MRPS34, P82930 = target: MRPS34, P82930
# Experimental: as §1
# NIPSNAP1, Q9BPW8 = target: NIPSNAP1, Q9BPW8
# Experimental: as §1
# OPA1, O60313 = target: OPA1, O60313
# Experimental: as §1
# ORC4, O43929 = target: ORC4, O43929
# Experimental: as §1
# PDS5A, Q29RF7 = target: PDS5A, Q29RF7
# Experimental: as §1
# PINX1, Q96BK5 = target: PINX1, Q96BK5
# Experimental: as §1
# RELCH, Q9P260 = target: RELCH, Q9P260
# Experimental: as §1
# RFC1, P35251 = target: RFC1, P35251
# Experimental: as §1
# SCPEP1, Q9HB40 = target: SCPEP1, Q9HB40
# Experimental: as §1
# TFB1M, Q8WVM0 = target: TFB1M, Q8WVM0
# Experimental: as §1
# TMEM201, Q5SNT2 = target: TMEM201, Q5SNT2
# Experimental: as §1
# UMPS, P11172 = target: UMPS, P11172
# Experimental: as §1
binder,measurement,setting,value
MRTIYMEVSFS [MBNL2],PRISMA enrichment of interactor (log2),"AHSA1, O95433",6.08
same,PRISMA enrichment of interactor (log2),"BOLA3, Q53S33",6.15
same,PRISMA enrichment of interactor (log2),"C20orf27, Q9GZN8",3.72
same,PRISMA enrichment of interactor (log2),"COA4, Q9NYJ1",4.71
same,PRISMA enrichment of interactor (log2),"CSRP2, Q16527",5.63
same,PRISMA enrichment of interactor (log2),"CXorf56, Q9H5V9",5.47
same,PRISMA enrichment of interactor (log2),"DAZAP1, Q96EP5",5.89
same,PRISMA enrichment of interactor (log2),"DNAJB1, P25685",4.54
same,PRISMA enrichment of interactor (log2),"DNAJB11, Q9UBS4",7.03
same,PRISMA enrichment of interactor (log2),"EIF1B, O60739",4.14
same,PRISMA enrichment of interactor (log2),"EIF4H, Q15056",5.56
same,PRISMA enrichment of interactor (log2),"FAM168A, Q92567",4.83
same,PRISMA enrichment of interactor (log2),"ISCU, Q9H1K1",6.83
same,PRISMA enrichment of interactor (log2),"JPT2, Q9H910",4.65
same,PRISMA enrichment of interactor (log2),"KIF4A, O95239",5.04
same,PRISMA enrichment of interactor (log2),"NDUFS6, O75380",5.88
same,PRISMA enrichment of interactor (log2),"NUP153, P49790",6.34
same,PRISMA enrichment of interactor (log2),"NXF1, Q9UBU9",6.65
same,PRISMA enrichment of interactor (log2),"PCBP2, Q15366",5.35
same,PRISMA enrichment of interactor (log2),[1],5.69
same,PRISMA enrichment of interactor (log2),"PDLIM3, Q53GG5",3.78
same,PRISMA enrichment of interactor (log2),"PDLIM7, Q9NR12",4.49
same,PRISMA enrichment of interactor (log2),"RBM14, Q96PK6",5.94
same,PRISMA enrichment of interactor (log2),"SDF2L1, Q9HCN8",4.79
same,PRISMA enrichment of interactor (log2),"SEH1L, Q96EE3",4.31
same,PRISMA enrichment of interactor (log2),"UBE2S, Q16763",4.76
same,PRISMA enrichment of interactor (log2),"WDR5, P61964",6.39
MTVALYE [RP11-121C2.3],PRISMA enrichment of interactor (log2),"AIP, O00170",4.1
same,PRISMA enrichment of interactor (log2),"ALKBH2, Q6NS38",5.57
same,PRISMA enrichment of interactor (log2),"C19orf53, Q9UNZ5",8.49
same,PRISMA enrichment of interactor (log2),"CCDC137, Q6PK04",5.76
same,PRISMA enrichment of interactor (log2),"CCDC178, Q5BJE1",6.7
same,PRISMA enrichment of interactor (log2),"CSNK1E, P49674",6.59
same,PRISMA enrichment of interactor (log2),"CXorf56, Q9H5V9",6.68
same,PRISMA enrichment of interactor (log2),"ENDOG, Q14249",4.16
same,PRISMA enrichment of interactor (log2),"PBK, Q96KB5",5.06
same,PRISMA enrichment of interactor (log2),"PCLAF, Q15004",5
same,PRISMA enrichment of interactor (log2),"PSRC1, Q6PGN9",5.04
same,PRISMA enrichment of interactor (log2),RAB34,4.83
same,PRISMA enrichment of interactor (log2),"RBIS, Q8N0T1",4.72
same,PRISMA enrichment of interactor (log2),"RBM33, Q96EV2",5.35
MNWLQWLLLLRGR [EDEM2],PRISMA enrichment of interactor (log2),"AK4, P27144",5.37
same,PRISMA enrichment of interactor (log2),"ANKRD26, Q9UPS8",4.19
same,PRISMA enrichment of interactor (log2),"AP3D1, O14617",4.61
same,PRISMA enrichment of interactor (log2),"ASCC1, Q8N9N2",3.8
same,PRISMA enrichment of interactor (log2),"ATP6V1F, Q16864",4.4
same,PRISMA enrichment of interactor (log2),"CLPX, O76031",4.66
same,PRISMA enrichment of interactor (log2),"COQ8A, Q8NI60",4.79
same,PRISMA enrichment of interactor (log2),"CTNND1, O60716",4.71
same,PRISMA enrichment of interactor (log2),"CXorf40A, Q8TE69",7.65
same,PRISMA enrichment of interactor (log2),"DMD, P11532",7.93
same,PRISMA enrichment of interactor (log2),"EHD1, Q9H4M9",4.93
same,PRISMA enrichment of interactor (log2),"EHD4, Q9H223",5.43
same,PRISMA enrichment of interactor (log2),"GGT5, P36269",5.49
same,PRISMA enrichment of interactor (log2),"MECP2, P51608",5.61
same,PRISMA enrichment of interactor (log2),"MRPS34, P82930",6.7
same,PRISMA enrichment of interactor (log2),"NIPSNAP1, Q9BPW8",4.59
same,PRISMA enrichment of interactor (log2),"OPA1, O60313",4.67
same,PRISMA enrichment of interactor (log2),"ORC4, O43929",5.79
same,PRISMA enrichment of interactor (log2),"PDS5A, Q29RF7",4.59
same,PRISMA enrichment of interactor (log2),"PINX1, Q96BK5",5.95
same,PRISMA enrichment of interactor (log2),"RELCH, Q9P260",3.97
same,PRISMA enrichment of interactor (log2),"RFC1, P35251",4.53
same,PRISMA enrichment of interactor (log2),"SCPEP1, Q9HB40",6.14
same,PRISMA enrichment of interactor (log2),"TFB1M, Q8WVM0",5.67
same,PRISMA enrichment of interactor (log2),"TMEM201, Q5SNT2",5.69
same,PRISMA enrichment of interactor (log2),"UMPS, P11172",5.61

# Shown as tab-separated lines: entries from further up
binder	measurement	setting	value
MTVALYE [RP11-121C2.3]	PRISMA enrichment of interactor (log2)	RBIS, Q8N0T1	4.72
same	PRISMA enrichment of interactor (log2)	RBM33, Q96EV2	5.35
MNWLQWLLLLRGR [EDEM2]	PRISMA enrichment of interactor (log2)	AK4, P27144	5.37
same	PRISMA enrichment of interactor (log2)	ANKRD26, Q9UPS8	4.19
same	PRISMA enrichment of interactor (log2)	AP3D1, O14617	4.61
same	PRISMA enrichment of interactor (log2)	ASCC1, Q8N9N2	3.8
